Data from patent publication US20160237414A1.
No constants are given. Whether binding was seen depends on the method and setting. Some binding calls cover weakened binding; strength is not graded here. For some of these results: Where a sequence is shown, tags or fusion partners need not be part of it.

T1: Purified luminal domain LIMP-2 (ld-LIMP2) (UniProt Q14108)
T1 sequence (looked up): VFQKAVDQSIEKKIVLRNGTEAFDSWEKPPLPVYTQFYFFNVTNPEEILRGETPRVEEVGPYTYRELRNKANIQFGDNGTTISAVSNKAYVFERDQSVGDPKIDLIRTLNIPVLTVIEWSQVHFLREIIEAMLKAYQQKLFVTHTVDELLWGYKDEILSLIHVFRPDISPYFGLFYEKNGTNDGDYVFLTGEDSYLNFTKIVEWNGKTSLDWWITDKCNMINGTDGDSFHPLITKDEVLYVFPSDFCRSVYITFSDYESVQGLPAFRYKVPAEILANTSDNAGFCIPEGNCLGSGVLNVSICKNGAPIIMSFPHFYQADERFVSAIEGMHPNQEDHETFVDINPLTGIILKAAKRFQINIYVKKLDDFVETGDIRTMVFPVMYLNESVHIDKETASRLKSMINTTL


What was measured:
[1] = biological target: T1, Purified luminal domain LIMP-2 (ld-LIMP2); assay: immunoprecipitation with ldLIMP2 on anti-LIMP2 beads, immunoblot (FIG. 6A)
[2] = biological target: T1, Purified luminal domain LIMP-2 (ld-LIMP2); assay: in vitro immunoprecipitation with ldLIMP-2 (FIG. 6)
[3] = biological target: T1, Purified luminal domain LIMP-2 (ld-LIMP2); assay: in vitro immunoprecipitation with ldLIMP-2 (FIG. 6C)

binding [1]	binding [2]	binding [3]	Binder
binds	binds		WT GCase (mature human acid β-glucosidase, 497 amino acids) (enzyme) ARPCIPKSFGYSSVVCVCNATYCDSFDPPTFPALGTFSRYESTRSGRRMELSMGPIQANHTGTGLLLTLQPEQKFQKVKGFGGAMTDAAALNILALSPPAQNLLLKSYFSEEGIGYNIIRVPMASCDFSIRTYTYADTPDDFQLHNFSLPEEDTKLKIPLIHRALQLAQRPVSLLASPWTSPTWLKTNGAVNGKGSLKGQPGDIYHQTWARYFVKFLDAYAEHKLQFWAVTAENEPSAGLLSGYPFQCLGFTPEHQRDFIARDLGPTLANSTHHNVRLLMLDDQRLLLPHWAKVVLTDPEAAKYVHGIAVHWYLDFLAPAKATLGETHRLFPNTMLFASEACVGSKFWEQSVRLGSWDRGMQYSHSIITNLLYHVVGWTDWNLALNPEGGPNWVRNFVDSPIIVDITKDTFYKQPMFYHLGHFSKFIPEGSQRVGLVASQKNDLDAVALMHPDGSAVVVVLNRSSKDVPLTIKDPAVGFLETISPGYSIHTYLWRRQ
		binds	AKA GCase mutant (TKD sequence, amino acids 407-409, changed to AKA) (enzyme) ARPCIPKSFGYSSVVCVCNATYCDSFDPPTFPALGTFSRYESTRSGRRMELSMGPIQANHTGTGLLLTLQPEQKFQKVKGFGGAMTDAAALNILALSPPAQNLLLKSYFSEEGIGYNIIRVPMASCDFSIRTYTYADTPDDFQLHNFSLPEEDTKLKIPLIHRALQLAQRPVSLLASPWTSPTWLKTNGAVNGKGSLKGQPGDIYHQTWARYFVKFLDAYAEHKLQFWAVTAENEPSAGLLSGYPFQCLGFTPEHQRDFIARDLGPTLANSTHHNVRLLMLDDQRLLLPHWAKVVLTDPEAAKYVHGIAVHWYLDFLAPAKATLGETHRLFPNTMLFASEACVGSKFWEQSVRLGSWDRGMQYSHSIITNLLYHVVGWTDWNLALNPEGGPNWVRNFVDSPIIVDIAKATFYKQPMFYHLGHFSKFIPEGSQRVGLVASQKNDLDAVALMHPDGSAVVVVLNRSSKDVPLTIKDPAVGFLETISPGYSIHTYLWRRQ
	binds		TAD GCase (TKD sequence, amino acids 407-409, changed to TAD) (enzyme) ARPCIPKSFGYSSVVCVCNATYCDSFDPPTFPALGTFSRYESTRSGRRMELSMGPIQANHTGTGLLLTLQPEQKFQKVKGFGGAMTDAAALNILALSPPAQNLLLKSYFSEEGIGYNIIRVPMASCDFSIRTYTYADTPDDFQLHNFSLPEEDTKLKIPLIHRALQLAQRPVSLLASPWTSPTWLKTNGAVNGKGSLKGQPGDIYHQTWARYFVKFLDAYAEHKLQFWAVTAENEPSAGLLSGYPFQCLGFTPEHQRDFIARDLGPTLANSTHHNVRLLMLDDQRLLLPHWAKVVLTDPEAAKYVHGIAVHWYLDFLAPAKATLGETHRLFPNTMLFASEACVGSKFWEQSVRLGSWDRGMQYSHSIITNLLYHVVGWTDWNLALNPEGGPNWVRNFVDSPIIVDITADTFYKQPMFYHLGHFSKFIPEGSQRVGLVASQKNDLDAVALMHPDGSAVVVVLNRSSKDVPLTIKDPAVGFLETISPGYSIHTYLWRRQ
